{"source": "PubChem BioAssay AID624297", "about": "(National Center for Advancing Translational Sciences (NCATS), 2012)", "note": "Among all 340,000 compounds or so, about 6,200 (1.8%) were called active. The shares of active, inactive and inconclusive entries below differ from those in the screen. Calls follow the shape of the dose curve; as a rule, active = well fitted activation curve with a large enough effect; inconclusive = small, poorly fitted or top-dose-only effect; inactive = no such curve, though single readings can be large or run the other way. Potencies of inconclusive entries are doubtful fits and often do not repeat. Potency is read from the fitted curve at half-maximal effect.", "data": [{"test": "A quantitative high throughput screen for small molecules that induce DNA re-replication in SW480 colon adenocarcinoma cells; also: nearly all actives have a fitted effect of over 55% in size; as to re-replication activation: % of control where 0% means no effect.", "settings": "Hoechst DNA content imaging, 48 h; re-replication activation: at 46.1 µM (top of the series) unless noted", "method_in_brief": "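DNA re-replication was detected as more nuclei of elevated Hoechst intensity after 48 hr exposure to compound (23 nL pinned per well of 250 cells).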", "values": [{"molecule": "O=C(CS(=O)(=O)c1ccccc1)Nc1nnc(-c2cccs2)o1", "Potency": "inconclusive: 29.1 µM [activator, single point]"}, {"molecule": "CC(=O)c1sc(NC(=O)C(C)Oc2ccc3c(C)cc(=O)oc3c2)nc1C", "note": "(centres undefined)", "re-replication activation": "inactive: 2.09%"}, {"molecule": "O=C(C1CCN(C2CCN(Cc3ccc4c(c3)CCO4)CC2)CC1)N1CCOCC1", "Potency": "inconclusive: 0.199 µM [activator, full curve, poor fit]"}, {"molecule": "COc1cc2c(cc1NC(=O)CSc1ccccc1)oc1ccccc12", "re-replication activation": "inactive: -2.52%"}, {"molecule": "Cc1cccc2cc(C#N)c(NCCNS(=O)(=O)c3ccccc3)nc12", "Potency": "inconclusive: 29.1 µM [activator, partial curve, poor fit]"}, {"molecule": "CCOc1ccc(CN(C)C(C)C(=O)Nc2ccc([N+](=O)[O-])cc2Cl)cc1OC", "note": "(centres undefined)", "re-replication activation": "inactive: -5.83%"}, {"molecule": "Cc1ccc(-n2nc3ccc(NC(=O)/C=C/c4ccco4)cc3n2)cc1", "Potency": "inconclusive: 20.6 µM [activator, single point]"}, {"molecule": "CC(=O)Nc1nnc(CSCc2ccccc2F)s1", "Potency": "inconclusive: 20.6 µM [activator, single point]"}, {"molecule": "CC(=O)Oc1ccc(N2C(=O)C3C4C=CC(CO)(O4)C3C2=O)cc1", "note": "(centres undefined)", "Potency": "inconclusive: 29.1 µM [activator, single point]"}, {"molecule": "CCOC(=O)c1ccc(Oc2nc(NC)nc(Nc3ccccc3)n2)cc1", "Potency": "inconclusive: 20.6 µM [activator, partial curve, poor fit]"}, {"molecule": "Cc1cccc(CSC(Nc2ccc(F)cc2)=C(C#N)C#N)c1", "Potency": "inconclusive: 32.6 µM [activator, partial curve, poor fit]"}, {"molecule": "CN1c2ccc(Cl)cc2C(=O)NC1C1CC=CCC1", "note": "(centres undefined)", "Potency": "inconclusive: 18.4 µM [activator, partial curve, poor fit]"}, {"molecule": "CCN1C(=O)C2(C(C(=O)c3cc4ccccc4o3)=C(O)C(=O)N2CCCN(C)C)c2ccccc21", "note": "(centres undefined)", "Potency": "inconclusive: 6.51 µM [activator, single point]"}, {"molecule": "COc1ccc(C(=O)Nc2nc3ccccc3s2)cc1OC", "re-replication activation": "inactive: -9.75%"}, {"molecule": "Cc1csc(NC(=O)Nc2cccc(Cl)c2)n1", "re-replication activation": "inactive: 0.693%"}, {"molecule": "CCCN1CCN(CCCNC(=O)CN2C(=O)c3cccnc3Oc3ccc(Cl)cc32)CC1", "re-replication activation": "inactive: -0.533%"}, {"molecule": "COc1ccc(-c2ccc(SCC(=O)NCc3ccc4c(c3)OCO4)nn2)cc1OC", "Potency": "inconclusive: 14.6 µM [activator, single point]"}, {"molecule": "Cn1nc(-c2ccccc2)c(CO)c1Oc1cccc(C(F)(F)F)c1", "re-replication activation": "inactive: -0.825%"}, {"molecule": "Cc1nnc(NC(=O)c2cc(S(=O)(=O)N3CCCCC3)ccc2Cl)s1", "re-replication activation": "inactive: 26.1%"}, {"molecule": "COC(=O)c1c(NC(=O)C2SC(=NC3CCCCC3)C(C(N)=O)=C2N)sc2c1CCCC2", "note": "(centres undefined)", "re-replication activation": "inactive: -8.38%"}, {"molecule": "CC1CCCN(C(=O)N2c3ccccc3Sc3ccccc32)C1", "note": "(centres undefined)", "Potency": "inconclusive: 14.6 µM [activator, partial curve]"}, {"molecule": "Nc1ccccc1-c1ccn[nH]1", "Potency": "inconclusive: 29.1 µM [activator, single point]"}, {"molecule": "Nc1[nH]c(N=NC(=O)c2ccccc2O)c2ccccc12", "Potency": "inconclusive: 29.1 µM [activator, single point]"}, {"molecule": "O=C(c1cccs1)N(Cc1ccc(Cl)cc1)C1CCS(=O)(=O)C1", "note": "(centres undefined)", "Potency": "inconclusive: 13 µM [activator, partial curve, poor fit]"}, {"molecule": "CC(C)c1ccc2c(c1)C(N1CCN(C)CC1)Cc1cccnc1S2", "note": "(centres undefined)", "Potency": "inconclusive: 29.1 µM [activator, single point]"}, {"molecule": "CN(C)c1ccc(C(=O)Nc2nc3c(s2)CCCC3)cc1", "re-replication activation": "inactive: -7.39%"}, {"molecule": "COc1ccccc1NC(=S)N1CCOCC1", "Potency": "inconclusive: 23.1 µM [activator, single point]"}, {"molecule": "COc1ccccc1NS(=O)(=O)c1cccc(NC(=O)CCNC(=O)c2ccccc2OC)c1", "re-replication activation": "inactive: 0.825%"}, {"molecule": "COc1ccc(C(=O)O/N=C(\\N)c2ccccc2)c(OC)c1", "Potency": "inconclusive: 14.6 µM [activator, partial curve, poor fit]"}, {"molecule": "O=C(O)c1cc2ccc3cccc4ccc(c1)c2c34", "re-replication activation": "inactive: -19.9%"}, {"molecule": "N#CC1=C(N)OC2=C(CC/C2=C\\c2ccccc2Cl)C1c1ccccc1Cl", "note": "(centres undefined)", "Potency": "inconclusive: 29.1 µM [activator, single point]"}, {"molecule": "CC1CCN(CC(CS(=O)(=O)c2ccc([N+](=O)[O-])cc2)N2CCC(C)CC2)CC1", "note": "(centres undefined)", "Potency": "active: 2.91 µM"}, {"molecule": "COc1ccc(NC(=O)c2ccco2)cc1S(=O)(=O)N1CCCCC1", "re-replication activation": "inactive: -2.96%"}, {"molecule": "Cc1ccc(N(Cc2ccc(C(=O)NC3CCCCC3)cc2)S(C)(=O)=O)cc1C", "Potency": "inconclusive: 16.4 µM [activator, partial curve, poor fit]"}, {"molecule": "CN(C(=O)COC(=O)Cn1c(C(F)(F)F)nc2ccccc21)c1c(N)n(Cc2ccccc2)c(=O)[nH]c1=O", "Potency": "inconclusive: 29.1 µM [activator, single point]"}, {"molecule": "CCCCc1cc(=O)oc2cc(C)cc(OC(C)C(=O)NCc3ccccn3)c12", "note": "(centres undefined)", "Potency": "inconclusive: 0.146 µM [activator, full curve]"}, {"molecule": "O=S(=O)(c1ccc(Br)cc1)N1CCC(c2nc3ccccc3[nH]2)CC1", "Potency": "inconclusive: 13 µM [activator, single point]"}, {"molecule": "Cc1ccc(C2(C)NC(=O)N(CC(=O)Nc3ccccc3C(=O)N3CCCCC3)C2=O)cc1", "note": "(centres undefined)", "Potency": "inconclusive: 9.2 µM [activator, partial curve, poor fit]"}, {"molecule": "CC1CCCN(C(=O)c2ccc3c(c2NCCO)C(=O)c2ccccc2C3=O)C1", "note": "(centres undefined)", "re-replication activation": "inactive: -4.7%"}, {"molecule": "COc1ccc(C(=O)Nc2ccc3nc(N4CCCCC4)cc(C)c3c2)cc1OC", "Potency": "inconclusive: 20.6 µM [activator, single point]"}, {"molecule": "CCOc1ccc(Cc2c(Cl)nc(SC)nc2N(C)C)cc1", "Potency": "inconclusive: 20.6 µM [activator, single point]"}, {"molecule": "CCc1noc(C)c1C(=O)N1CCN(S(=O)(=O)c2c(C)c(C)cc(C)c2C)CC1", "re-replication activation": "inactive: 4.76%"}, {"molecule": "CC1=C/C(=N\\OS(=O)(=O)c2ccccc2)C=CC1=O", "Potency": "inconclusive: 3.16 µM [activator, single point]"}, {"molecule": "COc1ccc(C(=O)NC2CCCc3ccccc32)cc1S(=O)(=O)N1CCOCC1", "note": "(centres undefined)", "Potency": "active: 10.3 µM"}, {"molecule": "CCCN(CC(=O)Nc1ccccc1OC)C(=O)CCC(=O)c1ccc(OCC)cc1", "Potency": "inconclusive: 32.6 µM [activator, partial curve, poor fit]"}, {"molecule": "Cc1cc(C)c2nc(C(F)(F)F)nc(N3CCN(C(=O)c4ccco4)CC3)c2c1", "re-replication activation": "inactive: -5.3%"}, {"molecule": "O=C1N/C(=N/O)S/C1=C/c1cccc([N+](=O)[O-])c1", "re-replication activation": "inactive: 6.08%"}, {"molecule": "O=C(CCCO)N/N=C/c1cc(Br)ccc1O", "Potency": "inconclusive: 10.3 µM [activator, partial curve]"}, {"molecule": "CCOCCCNC(=O)c1ccc2c(c1)ncn2C1CCCC1", "re-replication activation": "inactive: -4.04%"}, {"molecule": "Cc1cc(C)cc(NC(=O)CCc2nc3sc4c(c3c(=O)[nH]2)CCCC4)c1", "Potency": "inconclusive: 18.4 µM [activator, single point]"}, {"molecule": "O=C(N/N=C/c1ccc([N+](=O)[O-])o1)c1cn2ccc3ccccc3c2n1", "Potency": "active: 20.6 µM"}, {"molecule": "CCc1nc(N[C@H](C(=O)O)C(C)C)c2oc3ccccc3c2n1", "Potency": "inconclusive: 29.1 µM [activator, single point]"}, {"molecule": "Cc1cccc(N(C(=O)Cn2nnc(-c3ccccc3F)n2)C(C(=O)NC(C)(C)C)c2ccncc2)c1", "note": "(centres undefined)", "Potency": "inconclusive: 29.1 µM [activator, single point]"}, {"molecule": "Cn1c(SCC(=O)NC(C)(C)C)nc(O)cc1=O", "Potency": "inconclusive: 23.1 µM [activator, partial curve, poor fit]"}, {"molecule": "Cc1cccc(CCN2C(Nc3ccccc3)=NC[C@@H]2C)c1", "Potency": "inconclusive: 6.51 µM [activator, single point]"}, {"molecule": "CC(C)Cc1nnc(NC(=O)CCC(=O)Nc2ccc(Cl)cc2)s1", "Potency": "inconclusive: 5.17 µM [activator, single point]"}, {"molecule": "Cn1c(CCN2CCN(c3ccccn3)CC2)nc2cc(NS(=O)(=O)c3ccc(Cl)cc3)ccc21", "Potency": "inconclusive: 18.4 µM [activator, single point]"}, {"molecule": "COCCCNC(=S)N1CCN(S(C)(=O)=O)CC1", "re-replication activation": "inactive: 4.67%"}, {"molecule": "CCN1C(=O)N/C(=C/c2ccc(Sc3ccc(C)cc3)o2)C1=O", "Potency": "inconclusive: 29.1 µM [activator, single point]"}, {"molecule": "Cc1cc(Br)ccc1-n1[nH]c(C)c(C=Nc2cccc3nsnc23)c1=O", "Potency": "inconclusive: 25.9 µM [activator, single point]"}, {"molecule": "CC(C)OP(C)(=O)CN1CCN(CP(C)(=O)OC(C)C)CC1", "note": "(centres undefined)", "Potency": "inconclusive: 29.1 µM [activator, single point]"}, {"molecule": "Cc1ccccc1-n1nnnc1SCCCC(=O)c1ccc(F)cc1", "Potency": "inconclusive: 20.6 µM [activator, single point]"}, {"molecule": "COc1ccc2nc3cc(Cl)ccc3c(Nc3cc(C(C)C)c(O)cc3C)c2c1", "Potency": "inconclusive: 23.1 µM [activator, single point]"}, {"molecule": "COc1ccc2nc(N3CCN(C(=O)c4ccc5ncsc5c4)CC3)sc2c1", "Potency": "inconclusive: 5.8 µM [activator, partial curve, poor fit]"}, {"molecule": "CO/N=C\\CC(=O)Nc1ccc(Oc2ccccc2)cc1", "Potency": "active: 5.17 µM"}, {"molecule": "COc1ccc(/C=C2\\CCCc3c2nc2ccccc2c3C(=O)OCC(=O)c2c(N)n(C)c(=O)n(C)c2=O)cc1", "Potency": "inconclusive: 23.1 µM [activator, single point]"}, {"molecule": "COc1ccc(CN2[C@@H](CC(C)=O)c3ccc(/C=C/C(C)=O)cc3S2(=O)=O)cc1", "Potency": "inconclusive: 29.1 µM [activator, single point]"}, {"molecule": "O=C(NCc1ccccc1)C1CCCN(S(=O)(=O)c2ccc(F)cc2)C1", "note": "(centres undefined)", "re-replication activation": "inactive: -15.7%"}, {"molecule": "CCN(C[C@H]1N[C@@](CC)(C(=O)OC)[C@H]2C(=O)N(Cc3ccccc3)C(=O)[C@@H]12)S(=O)(=O)c1ccc(C(C)(C)C)cc1", "re-replication activation": "inactive: 5.8%"}]}]}
